Reference: PubChem BioAssay AID1259291 (Sanger Institute, 2017)

Test: 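Search for gene knock-downs that act synergistically alongside anchor drugs to kill cells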 (primary screen)
System: HT29 human colorectal cancer cells
Knock-down reagent: siRNA pool against human genes
Conditions: anchor drugs added a day after transfection: BYL719 at 1 µM, cetuximab at 5 µg/ml or trametinib at 10 nM, or DMSO vehicle alone
Measurement: 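Replicate-averaged viability relative to non-targeting pool, robust z-score based on control wells, plus per-drug synergy score for 1 µM BYL719, 5 µg/ml cetuximab and 10 nM trametinib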
Direction: robust z-score, knock-down alone: higher = more viable cells
Call rule: 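Essential when the robust z-score for knock-down without any drug is below -3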
Meaning of the calls: active = essential (knock-down alone); inactive = no change alone
In all, the deposit lists 794 reagents; shown is a random part of them. In the full data, 15 (1.9%) got an active call. 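Calls rest on knock-down alone; drug synergy scores do not affect them; drugs added a day post-transfection, DMSO vehicle as comparison.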 Not all columns of the deposit are shown. Not stated in the record: the amount of reagent, the time to read-out.

gene knocked down | robust z-score, knock-down alone | Call
DLG2 (discs large MAGUK scaffold protein 2) | 0.552 | inactive
FRK (fyn related Src family tyrosine kinase) | 0.552 | inactive
ERBB3 (erb-b2 receptor tyrosine kinase 3) | 0.552 | inactive
MST1R (macrophage stimulating 1 receptor) | 0.552 | inactive
DAPK2 (death associated protein kinase 2) | 0.552 | inactive
CDKL1 (cyclin dependent kinase like 1) | 0.552 | inactive
MECOM (MDS1 and EVI1 complex locus) | -0.0913 | inactive
PRKCG (protein kinase C gamma) | -0.684 | inactive
PIK3R3 (phosphoinositide-3-kinase regulatory subunit 3) | 0.107 | inactive
NTRK3 (neurotrophic receptor tyrosine kinase 3) | 0.552 | inactive
FCSK (fucose kinase) | 0.158 | inactive
ADCK1 (aarF domain containing kinase 1) | -1.26 | inactive
FN3K (fructosamine 3 kinase) | 0.552 | inactive
MYLK4 (myosin light chain kinase family member 4) | 0.552 | inactive
STK39 (serine/threonine kinase 39) | -1.96 | inactive
TWF1 (twinfilin actin binding protein 1) | -1.38 | inactive
SRPK3 (SRSF protein kinase 3) | 0.552 | inactive

In a second layout: results already given
gene knocked down	robust z-score, knock-down alone	Call
DLG2 (discs large MAGUK scaffold protein 2)	0.552	inactive
FRK (fyn related Src family tyrosine kinase)	0.552	inactive
